# Screening data, single-dose tests

Measurements from “University of Dundee, Small-Polar-MMV Screening Library” (2021), ChEMBL document CHEMBL3988442.

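Whole-parasite assay of Trypanosoma brucei over 72 hours; the read-out is not stated. Compounds at 30 µM. Higher reads as stronger inhibition (inferred: compounds with an IC50 in retests scored well above the rest). Values scatter widely below zero; nearly all retest evidence comes from the higher of the two concentrations used. Size under these conditions: about 64,000 compounds, about 940 of them at 50% or above in at least one test.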

Results are given as percent effect.
How 0% and 100% were set is not recorded. Most values in the screen are low, and negative values occur.
This is an unselected part of the compounds tested.

For Cc1ccc(C)c(CS(=O)(=O)CC(=O)N(C)Cc2cccc(F)c2)c1 the result was 7.59%. For CC(C)[C@@H](CO)Nc1cc(-c2cn[nH]c2)ncn1 the result was -19.33%. CC(C)N(Cc1c[nH]nc1-c1ccc2c(c1)OCO2)Cc1nccn1C read -45.83%. With CN(C)C(=O)COCc1cncc2c1CCN(C1CCOCC1)C2.O=C(O)C(F)(F)F.O=C(O)C(F)(F)F the screen gave -55.36%. CN1CC(=O)N(c2cccc(F)c2)CC12CCN(CC1CC1)C2.O=C(O)C(F)(F)F.O=C(O)C(F)(F)F (stereo not shown) read 1.731%.

Result for CCOC(=O)CN1CCC2(CC1)CC(=O)c1ccc(OC)cc1O2 was -3.74%. For Cc1cc(C)c(CNC(=O)NCc2nnc3n2CCCCC3)c(=O)[nH]1 the result was -136.1%. Cc1n[nH]c(SCCNC2CCN(c3nc4ccccc4s3)CC2)n1 read -5.585%. For COc1ccnc(NC2CCN(CC(=O)N3CCCC3)CC2)n1 the result was -1.512%. For O=C(O)C(F)(F)F.[H][C@@]12CCN(Cc3cc(C)on3)C[C@]1(C(=O)NCCOC)CCO2 the result was 31.24%.

With COCCCOc1ccc(C(=O)N(Cc2cnn(C)c2)C(C)C)cn1 the screen gave -2.962%. O=C(NCc1ccnc(OCC2CC2)c1)C1Cc2ccccc2O1 (stereo not shown) gave -11.18%. Result for CSCC(C)(O)CNS(=O)(=O)c1ccc(Br)cc1 (stereo not shown) was -19%. COCCCC1CCCCN1Cc1cc(F)ccc1-n1cccn1 (stereo not shown) read -19.84%. For CN1CCC(NC(=O)c2cc(Cl)cc(Br)c2O)C1=O (stereo not shown) the result was -10.3%.

CC(C)(C)n1cc(C(=O)O)c(-c2ccc(F)cc2F)n1 gave -12.7%. With Cc1ccc(NCc2cnc3n2CCN(c2ncccn2)CC3)nn1 the screen gave -45.23%. With Cc1cnc(N2CCN(C)CC2)nc1-c1ccnn1C the screen gave -45.22%. With [H][C@@]12CCN(C(=O)c3ccco3)C[C@]1([H])[C@@H](CNC(=O)C1CC1)OC2 the screen gave -29.01%. Result for CN(C)c1nccc(CNC(=O)NC(C)(C)C)n1 was -56.4%.

For CC(C)c1nn(C)c(N2CCOCC2)c1CNCc1nncn1C the result was -19.67%. With CC(C(=O)N1CCc2ccccc2C1)N(C)Cc1cscn1 (stereo not shown) the screen gave 0.6397%. CN1CCC(N2CCOC3(CCCC3)C2)C1=O (stereo not shown) gave -43.45%. Result for O=C(O)C(F)(F)F.O=C(O)C(F)(F)F.[H][C@@]12COC[C@]1([H])[C@@H](OCc1csc(C)n1)CN2c1ncc(CC)cn1 was -62.25%. CN(C)c1ccc(CNCc2ccc(N3CCOCC3)cc2)cn1 gave -28.36%.

For CCOc1ccc(N(CCC#N)C(=O)c2ccc(SC)nc2)cc1 the result was -4.54%. O=C(Cc1ccccn1)N1CCC2(CC1)CN(c1ncccn1)CCO2.O=C(O)C(F)(F)F.O=C(O)C(F)(F)F gave -30.9%. For [H][C@@]12CN(C(=O)c3ccccn3)C[C@]1([H])OCC(=O)N2CC1CCCCC1 the result was 4.9%. COc1ccccc1CN(Cc1cccnc1)CC1CCCO1.O=C(O)CC(O)(CC(=O)O)C(=O)O (stereo not shown) gave -11.93%. For Cc1c(C(C)NC(=O)Nc2ccccc2F)cnn1C (stereo not shown) the result was -9.483%.

Result for O=C(NCC(O)COc1ccc(C(F)(F)F)cc1)Nc1nncs1 (stereo not shown) was 18.7%. Result for CC(C)c1cc(C2CCCN2C(=O)CN2C(=O)CCNC2=O)no1 (stereo not shown) was -41.58%. Result for O=C(c1cnc(OCC(F)(F)F)c(Cl)c1)N1CCc2ccc(O)cc2C1 was -34.16%. Cc1cc(CNC(=O)CC2CCN(C(C)C)CC2)n(C)n1 gave -59.64%. With Cc1cc(C(=O)NCC2COCc3c(C)nnn3C2)no1 (stereo not shown) the screen gave -13.91%.

With [H][C@@]12CN(C(=O)CC(F)(F)F)C[C@]1([H])C(=O)N(CC1CC1)C2 the screen gave -4.437%. CCOCCCNC(=O)c1cc(Br)c2c(c1)OCCO2 gave -18.42%. For CCS(=O)(=O)NCC(=O)Nc1cc(CC(C)(C)C)n[nH]1 the result was 2.973%. Result for COc1cc(OC)nc(N2CCCC(c3nccn3CCN(C)C)C2)n1 (stereo not shown) was -85.02%. CC(NC(=O)c1cc2n(n1)CCCN(C(C)C)C2)c1cn2ccsc2n1 (stereo not shown) gave 4.996%.

Cc1nsc(N2CCCN(c3ccc(C#N)cn3)CC2)n1 read -51.04%. Cc1cccc(N2N=C(C(=O)NC(C)CCc3ccco3)CCC2=O)c1 (stereo not shown) read -2.927%. With COc1ccc(N2CCC(N(C)C(=O)C(C)SC)CC2)cc1 (stereo not shown) the screen gave 2.326%. Cc1ccc(S(=O)(=O)Nc2cccnc2O)cc1C gave -44.25%. With COc1ccc(C(=O)N(C)Cc2cc(C)on2)c(F)c1 the screen gave -41.87%.

O=C(CCS(=O)(=O)C1CCCC1)N1CCCC(n2ccnc2)C1 (stereo not shown) gave -83.52%. CN(C)C(C(=O)NCC1(C)COC1)c1cccc(F)c1 (stereo not shown) read 0.4854%. With CCOCC1CN(C(=O)c2cccs2)Cc2nn(C)cc21 (stereo not shown) the screen gave -17.67%. CCN1CCCC(O)(c2nc(C)c(CCOc3ccc(F)cc3)s2)CC1 (stereo not shown) read -11.99%.

Some entries from above, unchanged:

| SMILES | effect |
|---|---|
| `[H][C@@]12CN(C(=O)c3ccccn3)C[C@]1([H])OCC(=O)N2CC1CCCCC1` | 4.9% |
| `Cc1cc(C)c(CNC(=O)NCc2nnc3n2CCCCC3)c(=O)[nH]1` | -136.1% |
| `COc1ccc(C(=O)N(C)Cc2cc(C)on2)c(F)c1` | -41.87% |
| `CC(C)(C)n1cc(C(=O)O)c(-c2ccc(F)cc2F)n1` | -12.7% |
| `Cc1cc(C(=O)NCC2COCc3c(C)nnn3C2)no1` (stereo not shown) | -13.91% |
| `COc1cc(OC)nc(N2CCCC(c3nccn3CCN(C)C)C2)n1` (stereo not shown) | -85.02% |